Where a chain is given by its changes, count along the chain named. Read-outs that look alike come from different tables or passages of the source. These are yes or no findings as the source states them, for the method shown. Some results given as binding are weak or reduced against the parent protein; the word gives no strength. Blank lines part the entries; values can stand above or below the binder they belong to.
Key:
[1] = target: N-terminally FLAG-tagged human GPR20 (human) (UniProt Q99678); assay: Western blot of membrane-fraction protein, 20 µg/lane, reducing SDS-PAGE, IRDye anti-rabbit IgG
[2] = target: N-terminally FLAG-tagged human GPR20 (human) (UniProt Q99678); assay: Western blot of membrane fractions of transfected 293T cells, reducing SDS-PAGE
[3] = target: T1, GPR20 fragment peptide GLEVPLFHLFARLDEELHGT (human, N-terminally biotinylated and C-terminally amidated); assay: BLI (Octet RED384), peptide on streptavidin sensor, antibody as analyte
T1 construct: Captured on streptavidin sensor chips; also called peptide consisting of amino acid positions 29 to 48 of GPR20
T1 peptide: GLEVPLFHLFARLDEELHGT

By UniProt entry, the sequences of proteins in these tests, tags left out. Where a name states a change or a piece, a line headed by the entry shows the natural chain unless it says otherwise.
UniProt Q99678: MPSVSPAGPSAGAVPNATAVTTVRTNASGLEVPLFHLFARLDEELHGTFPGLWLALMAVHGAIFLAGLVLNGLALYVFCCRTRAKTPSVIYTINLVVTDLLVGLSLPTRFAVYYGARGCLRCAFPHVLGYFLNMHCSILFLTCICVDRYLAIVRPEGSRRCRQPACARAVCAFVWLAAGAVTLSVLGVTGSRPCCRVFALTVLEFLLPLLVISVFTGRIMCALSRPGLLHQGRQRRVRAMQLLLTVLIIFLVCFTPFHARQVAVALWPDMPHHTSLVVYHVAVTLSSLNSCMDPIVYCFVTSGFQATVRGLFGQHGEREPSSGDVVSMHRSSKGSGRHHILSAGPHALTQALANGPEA

binding [1]: binds | binding [2]: binds
B1: rabbit chimeric anti-GPR20 antibody OcChimera (antibody)
heavy: EVQLVESGGGLVQPGRSLKLSCVASGFTFNNYWMTWIRQAPGKGLEWVASITNIDGSSYYPDSVKGRFTISRDNVKSTLYLQMNSLRSEDTATYYCTRGSFDYWGQGVMVTVSSGQPKAPSVFPLAPCCGDTPSSTVTLGCLVKGYLPEPVTVTWNSGTLTNGVRTFPSVRQSSGLYSLSSVVSVTSSSQPVTCNVAHPATNTKVDKTVAPSTCSKPTCPPPELLGGPSVFIFPPKPKDTLMISRTPEVTCVVVDVSQDDPEVQFTWYINNEQVRTARPPLREQQFNSTIRVVSTLPITHQDWLRGKEFKCKVHNKALPAPIEKTISKARGQPLEPKVYTMGPPREELSSRSVSLTCMINGFYPSDISVEWEKNGKAEDNYKTTPAVLDSDGSYFLYNKLSVPTSEWQRGDVFTCSVMHEALHNHYTQKSISRSPGK
light: DIQMTQSPSVLSASVGDRVTLNCKASQNVNKYLNWFQQKLGEPPKLLIYNTNNLQTGIPSRFSGSGSGTDYTLTISSLQPEDVATYFCFQHVSWLTFGSGTKLEIKRDPVAPSVLLFPPSKEELTTGTATIVCVANKFYPSDITVTWKVDGTTQQSGIENSKTPQSPEDNTYSLSSTLSLTSAQYNSHSVYTCEVVQGSASPIVQSFNRGDC
notes: 04-093 variable regions on rabbit IGHG*02 and IGKC2*01 constant regions; also called rabbit chimeric antibody; OcHch/OcLch

B2: rat anti-human GPR20 antibody 04-093 (antibody, rat IgG2b)
heavy: EVQLVESGGGLVQPGRSLKLSCVASGFTFNNYWMTWIRQAPGKGLEWVASITNIDGSSYYPDSVKGRFTISRDNVKSTLYLQMNSLRSEDTATYYCTRGSFDYWGQGVMVTVSSAQTTAPSVYPLAPGCGDTTSSTVTLGCLVKGYFPEPVTVTWNSGALSSDVHTFPAVLQSGLYTLTSSVTSSTWPSQTVTCNVAHPASSTKVDKKVERRNGGIGHKCPTCPTCHKCPVPELLGGPSVFIFPPKPKDILLISQNAKVTCVVVDVSEEEPDVQFSWFVNNVEVHTAQTQPREEQYNSTFRVVSALPIQHQDWMSGKEFKCKVNNKALPSPIEKTISKPKGLVRKPQVYVMGPPTEQLTEQTVSLTCLTSGFLPNDIGVEWTSNGHIEKNYKNTEPVMDSDGSFFMYSKLNVERSRWDSRAPFVCSVVHEGLHNHHVEKSISRPPGK
light: DIQMTQSPSVLSASVGDRVTLNCKASQNVNKYLNWFQQKLGEPPKLLIYNTNNLQTGIPSRFSGSGSGTDYTLTISSLQPEDVATYFCFQHVSWLTFGSGTKLEIKRADAAPTVSIFPPSTEQLATGGASVVCLMNNFYPRDISVKWKIDGTERRDGVLDSVTDQDSKDSTYSMSSTLSLTKADYESHNLYTCEVVHKTSSSPVVKSFNRNEC
notes: Rat IgG2b, kappa, from a hybridoma; the full-length chains were made by linking them to known rat constant regions (IMGT IGHG2B*01, IGKC*01); also called 04-093 antibody; rat anti-GPR20 antibody 04-093
binding [3]: no binding (tested: 0.247 to 20 nM antibody) | binding ([3]; record 2): no binding (tested: 0.247 to 20 nM antibody)

binding [1]: binds | binding [2]: binds
B3: rabbit type anti-GPR20 antibody OcH1L1 (antibody, V domains shown)
VH: EVQLKESGGGLVKPGGSLKLCCKASGFTFNNYWMTWIRQAPGKGLEWIASITNIDGSSYYASWVNGRFTLSRDNAQSTVCLQLNSLTAADTATYFCTRGSFDYWGQGTLVTVSS
VL: DIVMTQTPSPVSAAVGGTVTINCKASQNVNKYLNWFQQKPGQPPKLLIYNTNNLQTGVPSRFSGSGSGTDYTLTISGVQCDDAATYYCFQHVSWLTFGGGTEVVVKG
notes: CDR-grafted rabbit type form of 04-093; also called OcH01/OcL01

binding [1]: binds | binding [2]: binds
B4: rabbit type anti-GPR20 antibody OcH2L1 (antibody, V domains shown)
VH: B3 VH with C21S, A61P, S62D, W63S, N65K, L70I, V79L, C80Y
VL: B3 VL
notes: CDR-grafted rabbit type form of 04-093; also called OcH02/OcL01
